Results are given in words; binding and its absence hold for the method and conditions named. In cells and extracts the contact can be indirect. A yes stands for co-enrichment or nearness to the bait. Other partners may have been found.
Target: altFUS-FLAG (FLAG-tagged altFUS) (human)
Experiment: affinity purification with mass spectrometry

B1: ERLIN2 (protein, UniProt O94905 1-339)
chain: MAQLGAVVAVASSFFCASLFSAVHKIEEGHIGVYYRGGALLTSTSGPGFHLMLPFITSYKSVQTTLQTDEVKNVPCGTSGGVMIYFDRIEVVNFLVPNAVYDIVKNYTADYDKALIFNKIHHELNQFCSVHTLQEVYIELFDQIDENLKLALQQDLTSMAPGLVIQAVRVTKPNIPEAIRRNYELMESEKTKLLIAAQKQKVVEKEAETERKKALIEAEKVAQVAEITYGQKVMEKETEKKISEIEDAAFLAREKAKADAECYTAMKIAEANKLKLTPEYLQLMKYKAIASNSKIYFGKDIPNMFMDSAGSVSKQFEGLADKLSFGLEDEPLETATKEN
  binding: binds

From doi:10.1101/848580
